Test results reported in the supplement of paper PMC5355238.
Structures can show the parent of a compound that is named as a salt. This is one part of the list. Most values lie at the level of the controls, where differences are scatter.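 Reh is a human leukemia cell line; the read-out is the median γH2AX antibody signal in S-phase cells by flow cytometry, with the score counting standard deviations from the median difference of each paired set of plates. Scores above 2.5 were called candidate hits, while scores below -2 mark compounds that lowered the MK1775-induced damage.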

Tested on: Reh
Assay: Z' of S-phase gammaH2AX difference (drug + MK1775 minus drug alone) (Z-score); higher = stronger synergistic S-phase DNA damage with MK1775
Conditions: MK1775 concentration 400 nM; first compound 10 µM; 4 h

SMILES | Z' of S-phase gammaH2AX difference (Z-score)
CCCn1c(=O)c2[nH]c(C3CCCC3)nc2n(CCC)c1=O [8-Cyclopentyl-1,3-dipropylxanthine] + C=CCn1c(=O)c2cnc(Nc3ccc(N4CCN(C)CC4)cc3)nc2n1-c1cccc(C(C)(C)O)n1 [MK1775] | inactive: 0.608
Nc1ccc(-c2ccc3ncc4ccc(=O)n(-c5cccc(C(F)(F)F)c5)c4c3c2)cn1 [Torin 2] + C=CCn1c(=O)c2cnc(Nc3ccc(N4CCN(C)CC4)cc3)nc2n1-c1cccc(C(C)(C)O)n1 [MK1775] | inactive: -1.15
CCC(=O)c1ccc2c(c1)N(CCCN(C)C)c1ccccc1S2 [Propionylpromazine hydrochloride] + C=CCn1c(=O)c2cnc(Nc3ccc(N4CCN(C)CC4)cc3)nc2n1-c1cccc(C(C)(C)O)n1 [MK1775] | inactive: 0.359
Cc1nc2ccccn2c(=O)c1CCN1CCC(C(=O)c2ccc(F)cc2)CC1 [Pirenperone] + C=CCn1c(=O)c2cnc(Nc3ccc(N4CCN(C)CC4)cc3)nc2n1-c1cccc(C(C)(C)O)n1 [MK1775] | inactive: -0.15
COc1cccc2c1C(=O)c1c(O)c3c(c(O)c1C2=O)C[C@@](O)(C(=O)CO)C[C@@H]3O[C@H]1C[C@H](N)[C@@H](O)[C@H](C)O1 [Epirubicin Hydrochloride] + C=CCn1c(=O)c2cnc(Nc3ccc(N4CCN(C)CC4)cc3)nc2n1-c1cccc(C(C)(C)O)n1 [MK1775] | inactive: -0.2
CCCN(CCC)CCc1cccc2c1CC(=O)N2 [Ropinirole hydrochloride] + C=CCn1c(=O)c2cnc(Nc3ccc(N4CCN(C)CC4)cc3)nc2n1-c1cccc(C(C)(C)O)n1 [MK1775] | inactive: -0.592
N=C(N)c1ccc(N)cc1 [4-Aminobenzamidine dihydrochloride] + C=CCn1c(=O)c2cnc(Nc3ccc(N4CCN(C)CC4)cc3)nc2n1-c1cccc(C(C)(C)O)n1 [MK1775] | inactive: -0.337
CC(=O)O[C@H]1C(=O)[C@@]2(C)[C@H]([C@H](OC(=O)c3ccccc3)[C@]3(O)C[C@H](OC(=O)[C@H](O)[C@@H](NC(=O)c4ccccc4)c4ccccc4)C(C)=C1C3(C)C)[C@]1(OC(C)=O)CO[C@@H]1C[C@@H]2O [Paclitaxel (Taxol)] + C=CCn1c(=O)c2cnc(Nc3ccc(N4CCN(C)CC4)cc3)nc2n1-c1cccc(C(C)(C)O)n1 [MK1775] | inactive: 0.0761
CC(=O)O[C@H]1C(=O)[C@@]2(C)[C@H]([C@H](OC(=O)c3ccccc3)[C@]3(O)C[C@H](OC(=O)[C@H](O)[C@@H](NC(=O)c4ccccc4)c4ccccc4)C(C)=C1C3(C)C)[C@]1(OC(C)=O)CO[C@@H]1C[C@@H]2O [Taxol] + C=CCn1c(=O)c2cnc(Nc3ccc(N4CCN(C)CC4)cc3)nc2n1-c1cccc(C(C)(C)O)n1 [MK1775] | inactive: -0.334
O=Nc1ccc2oc(=O)ccc2c1 [6-Nitroso-1,2-benzopyrone] + C=CCn1c(=O)c2cnc(Nc3ccc(N4CCN(C)CC4)cc3)nc2n1-c1cccc(C(C)(C)O)n1 [MK1775] | inactive: -0.0728
CC(=O)c1c(C)c2cnc(Nc3ccc(N4CCNCC4)cn3)nc2n(C2CCCC2)c1=O + C=CCn1c(=O)c2cnc(Nc3ccc(N4CCN(C)CC4)cc3)nc2n1-c1cccc(C(C)(C)O)n1 [MK1775] | inactive: -0.462
CC(C)(C)c1ccc(S(=O)(=O)/C=C/C#N)cc1 + C=CCn1c(=O)c2cnc(Nc3ccc(N4CCN(C)CC4)cc3)nc2n1-c1cccc(C(C)(C)O)n1 [MK1775] | inactive: -4.03
C[C@@H](O[C@H]1OCCN(Cc2n[nH]c(=O)[nH]2)[C@H]1c1ccc(F)cc1)c1cc(C(F)(F)F)cc(C(F)(F)F)c1 [Aprepitant (MK-0869)] + C=CCn1c(=O)c2cnc(Nc3ccc(N4CCN(C)CC4)cc3)nc2n1-c1cccc(C(C)(C)O)n1 [MK1775] | inactive: 0.489
Cc1cn(-c2cc(NC(=O)c3ccc(C)c(Nc4nccc(-c5cccnc5)n4)c3)cc(C(F)(F)F)c2)cn1 [Nilotinib (AMN-107)] + C=CCn1c(=O)c2cnc(Nc3ccc(N4CCN(C)CC4)cc3)nc2n1-c1cccc(C(C)(C)O)n1 [MK1775] | inactive: -0.397
NC(=O)c1ccc(-c2nc(-c3ccccn3)c(-c3ccc4c(c3)OCO4)[nH]2)cc1 + C=CCn1c(=O)c2cnc(Nc3ccc(N4CCN(C)CC4)cc3)nc2n1-c1cccc(C(C)(C)O)n1 [MK1775] | inactive: 0.147
O=C(O)c1cc(=O)c2c(Cl)cc(Cl)cc2[nH]1 [5,7-Dichlorokynurenic acid] + C=CCn1c(=O)c2cnc(Nc3ccc(N4CCN(C)CC4)cc3)nc2n1-c1cccc(C(C)(C)O)n1 [MK1775] | inactive: 0.775
COc1cc2c(NC3CCN(C)CC3)nc(N3CCCN(C)CC3)nc2cc1OCCCN(C)C + C=CCn1c(=O)c2cnc(Nc3ccc(N4CCN(C)CC4)cc3)nc2n1-c1cccc(C(C)(C)O)n1 [MK1775] | inactive: 0.498
CCn1c(-c2nonc2N)nc2c(C#CC(C)(C)O)ncc(OC[C@H]3CCCNC3)c21 + C=CCn1c(=O)c2cnc(Nc3ccc(N4CCN(C)CC4)cc3)nc2n1-c1cccc(C(C)(C)O)n1 [MK1775] | inactive: -0.534

SMILES | Z' of S-phase gammaH2AX difference (Z-score)
NC(=O)CC[C@H](N)C(=O)O [L-Glutamine] + C=CCn1c(=O)c2cnc(Nc3ccc(N4CCN(C)CC4)cc3)nc2n1-c1cccc(C(C)(C)O)n1 [MK1775] | inactive: 0.0267
CCN(CC)CCOc1ccc(Nc2ncc3cc(-c4c(Cl)cccc4Cl)c(=O)n(C)c3n2)cc1 + C=CCn1c(=O)c2cnc(Nc3ccc(N4CCN(C)CC4)cc3)nc2n1-c1cccc(C(C)(C)O)n1 [MK1775] | inactive: -0.608
CN1C(=O)C(Cc2c[nH]c3ccccc23)NC1=S (stereo not given) [Necrostatin-1] + C=CCn1c(=O)c2cnc(Nc3ccc(N4CCN(C)CC4)cc3)nc2n1-c1cccc(C(C)(C)O)n1 [MK1775] | inactive: 0.0392
CC(C)OC(=O)C(C)(C)Oc1ccc(C(=O)c2ccc(Cl)cc2)cc1 [Fenofibrate] + C=CCn1c(=O)c2cnc(Nc3ccc(N4CCN(C)CC4)cc3)nc2n1-c1cccc(C(C)(C)O)n1 [MK1775] | inactive: -0.357
COc1cc2ncnc(-n3nc(-c4ccccn4)nc3N)c2cc1OC + C=CCn1c(=O)c2cnc(Nc3ccc(N4CCN(C)CC4)cc3)nc2n1-c1cccc(C(C)(C)O)n1 [MK1775] | inactive: -0.211
NCCCCNS(=O)(=O)c1ccc2c(Cl)cccc2c1 + C=CCn1c(=O)c2cnc(Nc3ccc(N4CCN(C)CC4)cc3)nc2n1-c1cccc(C(C)(C)O)n1 [MK1775] | inactive: -0.02
CCOC(=O)c1cnc2c(cnn2CC)c1NN=C(C)C [Etazolate hydrochloride] + C=CCn1c(=O)c2cnc(Nc3ccc(N4CCN(C)CC4)cc3)nc2n1-c1cccc(C(C)(C)O)n1 [MK1775] | inactive: 1.13
COc1cc2ncnc(Nc3cccc(Cl)c3)c2cc1OC [Tyrphostin AG 1478] + C=CCn1c(=O)c2cnc(Nc3ccc(N4CCN(C)CC4)cc3)nc2n1-c1cccc(C(C)(C)O)n1 [MK1775] | inactive: 0.0168
CC1CCN=C(N)S1 (stereo not given) [(?)-AMT hydrochloride] + C=CCn1c(=O)c2cnc(Nc3ccc(N4CCN(C)CC4)cc3)nc2n1-c1cccc(C(C)(C)O)n1 [MK1775] | inactive: -0.0635
N#C/C(=C\c1ccc(O)c(O)c1)C(=O)NCCCc1ccccc1 [Tyrphostin AG 555] + C=CCn1c(=O)c2cnc(Nc3ccc(N4CCN(C)CC4)cc3)nc2n1-c1cccc(C(C)(C)O)n1 [MK1775] | inactive: -0.207
COc1ccc(C2=N[C@@H](c3ccc(Cl)cc3)[C@@H](c3ccc(Cl)cc3)N2C(=O)N2CCNC(=O)C2)c(OC(C)C)c1 [Nutlin-3] + C=CCn1c(=O)c2cnc(Nc3ccc(N4CCN(C)CC4)cc3)nc2n1-c1cccc(C(C)(C)O)n1 [MK1775] | inactive: -0.132
CN/C(=N\CCSCc1nc[nH]c1C)NC#N [Cimetidine] + C=CCn1c(=O)c2cnc(Nc3ccc(N4CCN(C)CC4)cc3)nc2n1-c1cccc(C(C)(C)O)n1 [MK1775] | inactive: -0.524
c1ccc(C2CN3CCSC3=N2)cc1 (single isomer, unassigned; (-)) [(-)-Tetramisole hydrochloride] + C=CCn1c(=O)c2cnc(Nc3ccc(N4CCN(C)CC4)cc3)nc2n1-c1cccc(C(C)(C)O)n1 [MK1775] | inactive: -0.543
NC(=O)c1ccc(I)c([N+](=O)[O-])c1 [Iniparib (BSI-201)] + C=CCn1c(=O)c2cnc(Nc3ccc(N4CCN(C)CC4)cc3)nc2n1-c1cccc(C(C)(C)O)n1 [MK1775] | inactive: 0.0451
O=C(O)c1cc2cc(Cc3cccnc3)ccc2o1 [Furegrelate sodium] + C=CCn1c(=O)c2cnc(Nc3ccc(N4CCN(C)CC4)cc3)nc2n1-c1cccc(C(C)(C)O)n1 [MK1775] | inactive: -0.25
COC(=O)Nc1ccc(-c2nc(N3CCOCC3)c3cnn(C4CCN(C(=O)OC)CC4)c3n2)cc1 + C=CCn1c(=O)c2cnc(Nc3ccc(N4CCN(C)CC4)cc3)nc2n1-c1cccc(C(C)(C)O)n1 [MK1775] | inactive: -0.112
CCCCCCCCCC[Si](C)(C)CCC(=O)NC(Cc1ccc(C)cc1)c1ccccc1 (stereo not given) [Sandoz 58-035] + C=CCn1c(=O)c2cnc(Nc3ccc(N4CCN(C)CC4)cc3)nc2n1-c1cccc(C(C)(C)O)n1 [MK1775] | inactive: -0.611

Exported with tabs: entries from further up
SMILES	Z' of S-phase gammaH2AX difference (Z-score)
CN/C(=N\CCSCc1nc[nH]c1C)NC#N [Cimetidine] + C=CCn1c(=O)c2cnc(Nc3ccc(N4CCN(C)CC4)cc3)nc2n1-c1cccc(C(C)(C)O)n1 [MK1775]	inactive: -0.524
c1ccc(C2CN3CCSC3=N2)cc1 (single isomer, unassigned; (-)) [(-)-Tetramisole hydrochloride] + C=CCn1c(=O)c2cnc(Nc3ccc(N4CCN(C)CC4)cc3)nc2n1-c1cccc(C(C)(C)O)n1 [MK1775]	inactive: -0.543
